PubChem BioAssay AID504744 – Drosophila RNAi Screening Center | 2011

- Aim: 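Find genes whose loss alters insulin-driven dAkt phosphorylation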 (primary screen)
- Cells: Drosophila Kc167 cells
- Knock-down reagent: long dsRNA against Drosophila genes, 250 ng dsRNA per well of a 384-well plate
- Timing: 3 days of knock-down, then overnight serum-free starvation before stimulation
- Conditions: bovine insulin at 387 nM for 10 minutes after 12 h without serum
- Measured: 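In-cell antibody fluorescence for phospho-dAkt in each well over DNA-dye signal, with log2 residuals expressed as z-scores adjusted for cell count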
- Active means: 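Hit in the insulin screen when the two-replicate mean z-score is more extreme than plus or minus 2.5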
The deposit covers about 23,000 reagents; this is an unselected part of those with a known target gene and a result. Over the whole deposit, 98 (0.43%) are marked active. 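Only hit calls are given; the phospho-dAkt signals, z-scores and hit direction were not deposited.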 Reagents against one gene are numbered here. A plus sign joins genes that one reagent is predicted to hit. No sequences are given here.

CG14950 (retired record) (GeneID 38334) gave inactive. Depletion of ssp6 (GeneID 38694) #1 resulted in: inactive. After knock-down of ssp6 (GeneID 38694) #2 the results were inactive. After knock-down of PH4alphaNE1 (GeneID 43625), the screen gave inactive. After knock-down of CG7484 (GeneID 39969) the results were inactive. After knock-down of RAF2 (GeneID 39821) #1, the screen gave inactive.

RAF2 (GeneID 39821) #2 gave inactive. With knock-down of Octbeta3R (GeneID 3885573) #1, the record shows inactive. Silencing of Octbeta3R (GeneID 3885573) #2 resulted in: inactive. Octbeta3R (GeneID 3885573) #3 scored inactive. Against Octbeta3R (GeneID 3885573) #4 the deposit lists inactive. Silencing of Octbeta3R (GeneID 3885573) #5 gave: inactive.

Against CG17141 (GeneID 42697), the entry reads inactive. After knock-down of CG3815 (GeneID 31571), the screen gave inactive. Silencing of CG32195 (GeneID 317907) resulted in: inactive. Against CG42750 (GeneID 35090) #1, the values are inactive. CG42750 (GeneID 35090) #2 gave inactive. For CG42750 (GeneID 35090) #3 the deposit lists inactive.

After knock-down of CG42750 (GeneID 35090) #4 the results were inactive. Knock-down of l(1)G0004 (GeneID 33033) gave: inactive. For SmD3 (GeneID 36306), the values are inactive. Against Ts (GeneID 33499) #1, the values are inactive. Ts (GeneID 33499) #2 showed inactive. With knock-down of CG14234 (GeneID 32988) #1, the screen gave inactive.

Knock-down of CG14234 (GeneID 32988) #2 resulted in: inactive. Against CG10602 (GeneID 35146), the values are inactive. Atg101 (GeneID 32871) gave inactive. CG32376 (GeneID 318002) showed inactive. Against Rab7 (GeneID 42841) the deposit lists inactive. His2B:CG33870 + His2B:CG33868 + His2B:CG33882 + 21 more showed inactive.

With knock-down of por (GeneID 32818), the screen gave inactive. CG11257 (GeneID 37227) gave inactive. l(2)10685 (GeneID 33293) gave inactive. Depletion of CG8509 (GeneID 32535) came out at: inactive. Against Arp3 (GeneID 38898), the entry reads inactive. Knock-down of slp1 (GeneID 33607) gave: inactive.

With knock-down of Zip99C (GeneID 43533), the record shows inactive. After knock-down of Prosbeta7 (GeneID 40639), the record shows inactive. l(2)37Cb (GeneID 35192) gave inactive. Depletion of CG2818 (GeneID 33597) came out at: inactive. Osi8 (GeneID 40762) showed inactive. Silencing of alpha-Man-Ic (GeneID 318624) gave: inactive.

Against CG42457 (retired record) + cpo #1 the deposit lists inactive. CG42457 (retired record) + cpo #2 showed inactive. Against CG42457 (retired record) + cpo #3 the deposit lists inactive. Depletion of CG42457 (retired record) + cpo #4 gave: inactive. For Cisd2 (GeneID 43459), the values are inactive. After knock-down of CG31909 (GeneID 319020) the results were inactive.

After knock-down of AspRS (GeneID 36420), the record shows inactive. CG33630 (GeneID 3772504) scored inactive. Knock-down of ATPsynE (GeneID 41745) resulted in: inactive. RIC-3 (GeneID 37384) #1 gave inactive. Depletion of RIC-3 (GeneID 37384) #2 came out at: inactive. Silencing of CG7110 (GeneID 34757) #1 resulted in: inactive.

Silencing of CG7110 (GeneID 34757) #2 came out at: inactive. After knock-down of Mlc2 (GeneID 43587), the record shows inactive. With knock-down of slx1 (GeneID 40578) the results were inactive.

Reformatted: results already given.
| Gene | dsRNA no. | Outcome |
| --- | --- | --- |
| Arp3 (GeneID 38898) | 1 | inactive |
| slp1 (GeneID 33607) | 1 | inactive |
| Zip99C (GeneID 43533) | 1 | inactive |
| Prosbeta7 (GeneID 40639) | 1 | inactive |
| l(2)37Cb (GeneID 35192) | 1 | inactive |
| CG2818 (GeneID 33597) | 1 | inactive |
| Osi8 (GeneID 40762) | 1 | inactive |
| alpha-Man-Ic (GeneID 318624) | 1 | inactive |
